Results reported in PubChem BioAssay AID248 (DTP/NCI, 2004).
The list does not hold the whole screen: it gathers tests that were run many times, whatever their T/C, doses with no T/C, and many T/C values between a quarter and a half above the control. Other doses and runs of a compound stand elsewhere. T/C is the treated group as % of the vehicle group. Some doses have a count of surviving animals in place of a T/C: the source holds a T/C of zero for them, seemingly a mark for toxic or unscored doses. Some doses without a T/C left all or most animals alive at the check, yet need not have been tolerated: survival well below the control is almost never listed, so the zero probably covers shortened survival too. Counts of survivors are from the toxicity check (mostly the fifth day) where no day follows; animals may have died later. Schedules are NCI's codes, read here as Q, the interval in days (D) or hours (H), X, the number of doses. Some entries were tested several times; their values stand side by side, smallest first. Some schedules carry Z or #; the key to these is not given. Where survival is the endpoint, this PubChem deposit counts one and a half times the control or more as active, and values a quarter to a half above the control carry no call in these data; other NCI protocols may use other cut-offs.

Tested on: L1210 leukemia ip in BDF1 mice, survival T/C
Test: NCI In Vivo Anticancer Drug Screen. Data for tumor model L1210 Leukemia (intraperitoneal) in B6D2F1 (BDF1) mice
Conditions: T/C endpoint: mean survival time, higher T/C = longer survival
[1] = dose: 400.0 mg/kg/injection, schedule: Q04DX003 (ip), vehicle: Klucel (hydroxypropylcellulose) (HPC)
[2] = dose: 200.0 mg/kg/injection, schedule: Q01DX009 (ip), vehicle: saline
[3] = dose: 400.0 mg/kg/injection, schedule: Q04DX003 (ip), vehicle: saline
[4] = dose: 200.0 mg/kg/injection, schedule: Q04DX003 (ip), vehicle: Klucel (hydroxypropylcellulose) (HPC)
[5] = dose: 50.0 mg/kg/injection, schedule: Q01DX009 (ip), vehicle: other
[6] = dose: 400.0 mg/kg/injection, schedule: Q01DX001 (ip), vehicle: saline
[7] = dose: 400.0 mg/kg/injection, schedule: Q01DX009 (ip), vehicle: Klucel (hydroxypropylcellulose) (HPC)
[8] = dose: 200.0 mg/kg/injection, schedule: Q01DX001 (ip), vehicle: saline
[9] = dose: 400.0 mg/kg/injection, schedule: Q01DX009 (ip), vehicle: saline with Tween-80
[10] = dose: 400.0 mg/kg/injection, schedule: Q04DX002 (ip), vehicle: Klucel (hydroxypropylcellulose) (HPC)

For `O=C(Cc1ccc(N(CCCl)CCCl)cc1)NC1CCCC1`, the T/C [1] was 132 % of control and the survivor count (dose: 600.0 mg/kg/injection, schedule: Q04DX003 (ip), vehicle: Klucel (hydroxypropylcellulose) (HPC)) was 3 of 6 and 6 of 6.
`NC1=NCC(CSS(=O)(=O)O)S1` (configuration not stated) was tested, and the survivor count (dose: 45.0 mg/kg/injection, schedule: Q01DX009 (ip), vehicle: saline) was 2 of 6 and the survivor count (dose: 65.0 mg/kg/injection, schedule: Q01DX009 (ip), vehicle: saline) was 0 of 6.
In the case of `O=C1N2CCOC2=NC1(c1ccccc1)c1ccccc1`, the survivor count (dose: 100.0 mg/kg/injection, schedule: Q01DX009 (ip), vehicle: saline) is reported as 5 of 6, the survivor count [2] is reported as 0 of 6 and the survivor count [3] is reported as 5 of 6.
With `Cc1cc(N(CCOS(C)(=O)=O)CCOS(C)(=O)=O)ccc1C=Nc1cccc(Br)c1` the survivor count [4] was 6 of 6 and the survivor count [1] was 1 of 6.
For `FC(F)=C(F)I`, the survivor count (dose: 400.0 mg/kg/injection, schedule: Q04DX002 (ip), vehicle: other) was 0 of 3.
`FC(F)(F)c1nc2nc(Cl)c(Cl)nc2[nH]1` was tested, and the T/C [5] was 128 % of control, the survivor count [5] was 4 of 6 and the T/C (dose: 66.0 mg/kg/injection, schedule: Q04DX003 (ip), vehicle: other) was 149 % of control. For the same compound, the T/C (dose: 66.0 mg/kg/injection, schedule: Q04DX003 (ip), vehicle: saline with Tween-80) was 129 % of control, the survivor count (dose: 75.0 mg/kg/injection, schedule: Q01DX009 (ip), vehicle: other) was 1 of 6 and the survivor count (dose: 100.0 mg/kg/injection, schedule: Q01DX009 (ip), vehicle: other) was 1 of 6. For the same compound, the survivor count (dose: 150.0 mg/kg/injection, schedule: Q04DX003 (ip), vehicle: other) was 3 of 6, the survivor count (dose: 150.0 mg/kg/injection, schedule: Q04DX003 (ip), vehicle: saline sonified) was 3 of 6 and the survivor count (dose: 150.0 mg/kg/injection, schedule: Q04DX003 (ip), vehicle: saline with Tween-80) was 0 of 6. The survivor count (dose: 200.0 mg/kg/injection, schedule: Q01DX001 (ip), vehicle: saline with Tween-80) was 1 of 6, the survivor count [4] was 1 of 6 and the survivor count [1] was 0 of 6.
With `CC(C)CNCc1ccc([N+](=O)[O-])cc1` the survivor count (dose: 300.0 mg/kg/injection, schedule: Q01DX001 (ip), vehicle: carboxymethylcellulose (CMC)) was 1 of 6.
For `CCCC/C=C/Br`, the survivor count (dose: 400.0 mg/kg/injection, schedule: Q01DX009 (ip), vehicle: acetone) was 0 of 6.
`CC(C)C(C#N)c1ccccc1` (configuration not stated) was tested, and the survivor count (dose: 100.0 mg/kg/injection, schedule: Q04DX003 (ip), vehicle: Klucel (hydroxypropylcellulose) (HPC)) was 0 of 6.
In the case of `CC(C)c1cc2c(cc1O)C1(C)CCCC(C)(C(=O)O)C1CC2` (configuration not stated), the survivor count (dose: 400.0 mg/kg/injection, schedule: Q01DX001 (ip), vehicle: acetone) is reported as 2 of 6.
For `CN(C)CC(O)c1ccc2oc3ccccc3c2c1` (configuration not stated), the survivor count [6] was 0 of 3.
With `CC(=O)c1cccc(NC(=O)Oc2ccc(F)cc2Cl)c1` the survivor count [7] was 4 of 6.
With `C[N+]1(C)CC2C3C=CC(C3)C2C1` (configuration not stated) the survivor count [1] was 0 of 6.
With `Nc1nc(N)nc(-c2ccc(NC(=O)c3ccccc3[N+](=O)[O-])cc2)n1` the survivor count (dose: 400.0 mg/kg/injection, schedule: Q01DX001 (ip), vehicle: Klucel (hydroxypropylcellulose) (HPC)) was 6 of 6.
With `Brc1sccc1-c1cccc2ccccc12` the survivor count (dose: 200.0 mg/kg/injection, schedule: Q04DX003 (ip), vehicle: saline with Tween-80) was 2 of 3.
With `c1cc[c]([Sb]([S]c2ncnc3nc[nH]c23)[c]2ccccc2)cc1` the survivor count (dose: 20.0 mg/kg/injection, schedule: Q01DX001 (ip), vehicle: other) was 3 of 6, the survivor count (dose: 40.0 mg/kg/injection, schedule: Q01DX001 (ip), vehicle: other) was 0 of 6 and the survivor count (dose: 80.0 mg/kg/injection, schedule: Q01DX001 (ip), vehicle: other) was 0 of 6. The survivor count (dose: 100.0 mg/kg/injection, schedule: Q01DX001 (ip), vehicle: other) was 0 of 6, the survivor count (dose: 200.0 mg/kg/injection, schedule: Q01DX001 (ip), vehicle: other) was 0 of 6 and the survivor count (dose: 400.0 mg/kg/injection, schedule: Q01DX001 (ip), vehicle: other) was 0 of 6.
For `CC1CN=C(c2ccc(NC(=O)NCCCCCCCCCCNC(=O)Nc3ccc(C4=NCC(C)N4)cc3)cc2)N1` (configuration not stated), the survivor count (dose: 42.0 mg/kg/injection, schedule: Q01DX015 (ip), vehicle: water) was 0 of 6.
With `CCc1ccccc1NC(=O)Nc1ccc(OC)cc1` the survivor count (dose: 100.0 mg/kg/injection, schedule: Q01DX009 (ip), vehicle: Klucel (hydroxypropylcellulose) (HPC)) was 6 of 6 and the survivor count [7] was 6 of 6.
For `Oc1ccccc1Sc1ccccc1O`, the survivor count [8] was 4 of 4.
`Cc1cc(N2C(=O)CSC2=S)ccc1Br` was tested, and the survivor count [9] was 4 of 6.
In the case of `O=C1C=CC(=O)c2c(O)c(CO)c(CO)c(O)c21`, the survivor count (dose: 3.12 mg/kg/injection, schedule: Q01DX009 (ip), vehicle: water) is reported as 1 of 6, the survivor count (dose: 6.25 mg/kg/injection, schedule: Q01DX009 (ip), vehicle: water) is reported as 1 of 6 and the survivor count (dose: 12.5 mg/kg/injection, schedule: Q01DX009 (ip), vehicle: water) is reported as 0 of 6. For the same compound, the survivor count (dose: 25.0 mg/kg/injection, schedule: Q01DX009 (ip), vehicle: water) was 2 of 6, the survivor count (dose: 50.0 mg/kg/injection, schedule: Q01DX009 (ip), vehicle: water) was 0 of 6 and the survivor count (dose: 100.0 mg/kg/injection, schedule: Q01DX009 (ip), vehicle: water) was 0 of 6. The survivor count (dose: 200.0 mg/kg/injection, schedule: Q01DX009 (ip), vehicle: water) was 0 of 6 and the survivor count (dose: 400.0 mg/kg/injection, schedule: Q01DX009 (ip), vehicle: water) was 0 of 6.
For `COc1ccc(OC)c(NC(=O)CCl)c1`, the survivor count (dose: 200.0 mg/kg/injection, schedule: Q01DX009 (ip), vehicle: Klucel (hydroxypropylcellulose) (HPC)) was 3 of 6, the survivor count (dose: 200.0 mg/kg/injection, schedule: Q04DX002 (ip), vehicle: Klucel (hydroxypropylcellulose) (HPC)) was 1 of 3 and the survivor count [7] was 0 of 6. The survivor count [10] was 0 of 3.
`NC(N)=N/N=C/c1c2ccccc2cc2ccccc12` was tested, and the survivor count (dose: 60.0 mg/kg/injection, schedule: Q01DX Z (ip), vehicle: carboxymethylcellulose (CMC)) was 3 of 6, the survivor count (dose: 120.0 mg/kg/injection, schedule: Q01DX Z (ip), vehicle: carboxymethylcellulose (CMC)) was 0 of 6 and the survivor count (dose: 480.0 mg/kg/injection, schedule: Q01DX Z (oral), vehicle: carboxymethylcellulose (CMC)) was 5 of 6.
With `Cc1cc(C)c(NC(=S)NC(=O)C(C)Oc2ccccc2)c(C)c1` (configuration not stated) the survivor count [9] was 3 of 3.
With `OC(c1ccccc1)(c1ccccc1)C1CCCCC1=C(c1ccccc1)c1ccccc1` (configuration not stated) the survivor count [2] was 6 of 6.
`C[N+]1(C)CCS(=O)(=O)CC1` was tested, and the survivor count [10] was 0 of 3.
With `CN(C)/N=C\c1cccnc1` the survivor count [3] was 0 of 6.
For `Nc1nc(N)c(N=Nc2ccc(S(=O)(=O)Nc3ccccn3)cc2)c(N)n1`, the survivor count [6] was 4 of 4.
With `CC(C)NC(=O)C1CC2c3cccc4c3c(cn4CN(C)C)CC2N(C)C1` (configuration not stated) the T/C (dose: 50.0 mg/kg/injection, schedule: Q04DX002 (ip), vehicle: saline) was 125 % of control.
`C=CCCCCCCCCO` was tested, and the survivor count [6] was 0 of 4.
`CCc1cccc(CC)c1NC(=O)CCl` was tested, and the survivor count [4] was 5 of 6.
With `CCCCC(=O)N/N=C/c1ccc(Cl)cc1Cl` the survivor count [8] was 1 of 6 and the survivor count [6] was 0 of 6.
For `C=CCC(C#N)(CCN(C)C)c1cccc2ccccc12` (configuration not stated), the survivor count [7] was 0 of 6.
With `CCCCCCCC(O)CCC(=O)NN` (configuration not stated) the survivor count (dose: 100.0 mg/kg/injection, schedule: Q01DX009 (ip), vehicle: saline with Tween-80) was 5 of 6, the survivor count (dose: 200.0 mg/kg/injection, schedule: Q01DX009 (ip), vehicle: saline with Tween-80) was 2 of 6 and the survivor count [9] was 1 of 6.
With `COc1ccc(C=NC(C)(C)CO)c(OC)c1` the survivor count (dose: 300.0 mg/kg/injection, schedule: Q01DX001 (ip), vehicle: saline) was 3 of 6.
